Patent publication US20170046476A1, “SYSTEMS, APPARATUS, AND METHODS FOR ANALYZING AND PREDICTING CELLULAR PATHWAYS” (priority 2015, published 2017)

System: STHdh cell line model of Huntington's disease
Test: Global (untargeted) lipid profiling by LC-MS, STHdh Q111 vs STHdh Q7 cells
Assay type: cell-based, mouse
Conditions: ratio of LC-MS feature level in STHdh Q7 vs STHdh Q111 cells; positive mode feature (mode_m/z_RT), mass matched to potential metabolites in the PPMI network

| Molecule | Q7/Q111 |
| --- | --- |
| CCCCCCCC/C=C\CCCCCCCC(=O)OC[C@@H](COC(=O)CCCCCCCCCCCCCCCCC)OC(=O)CCCCCCCCCCCCCCCCC [TG(18:0/18:0/18:1(9Z))[iso3]] | 6.574 |
| CCCCCC/C=C\CCCCCCCC(=O)OC[C@H](COC(=O)CCCCCCCCCCCCCCCCCCC)OC(=O)CCCCCCCCCCCCCCCCC [TG(16:1(9Z)/18:0/20:0)[iso6]] | 6.574 |

Same assay, conditions: ratio of LC-MS metabolite feature level, STHdh Q7 vs STHdh Q111 cells; feature (mode_m/z_RT) matched by mass to potential metabolites; P-value ≦0.01

| Molecule | Q7/Q111 |
| --- | --- |
| CC(C)COC(Cc1ccccc1)OCC(C)C [[2,2-bis(2-methylpropoxy)ethyl]benzene] | 0.2629 |
| CCCCC/C=C\C/C=C\CCCC(=O)O [Goshuyic acid] | 0.1814 |
| COc1cc(O)cc2c1C(=O)c1c(O)cc(CO)cc1C2=O [Questinol] | 6.631 |
| CCCC(CC(C)O)C(=O)O (centres unmarked) [4-Hydroxyvalproic acid] | 0.2033 |
| Terpinyl isobutyrate | 0.1814 |
| CCCCCCCCC1CCC(=O)O1 (centres unmarked) [xi-Dihydro-5-octyl-2(3H)-furanone] | 0.2707 |
| CC(C)=CCCC(C)C1OCC(C)O1 (centres unmarked) | 0.2707 |
| CCCCCC=CCOC(=O)CCC [2-Octenyl butyrate] | 0.2707 |
| C=CCOC(=O)CCCCC1CCCCC1 [2-Propenyl cyclohexanepentanoate] | 0.1814 |
| COc1ccc(-c2oc3cc(O)ccc3c(=O)c2O)cc1O [3,3′,7-Trihydroxy-4′-methoxyflavone] | 6.631 |
| CC/C=C\C/C=C\C/C=C\C/C=C\C/C=C\CCCC(=O)O [timnodonate] | 2.729 |
| COc1cc(O)c2c(=O)c(-c3ccc(O)cc3O)coc2c1 [Cajanin] | 6.631 |
| CC/C=C\CC1OC1C/C=C\CCCCCCCC(=O)O (centres unmarked) [A-12(13)-EpODE] | 0.1468 |
| CCCC(C(=O)O)C(O)CC (centres unmarked) [3-Hydroxyvalproic acid] | 0.2033 |
| C=CC(C)(CCC=C(C)C)OC(=O)C(C)C (centres unmarked) [Linalyl isobutyrate] | 0.1814 |
| C=CCCCCCCCCC(=O)OC [Methyl 10-undecenoate] | 0.2707 |
| CC(=O)OC1CC(C)CCC1C(C)C (racemic) [(±)-Menthyl acetate] | 0.2707 |
| CC(C)CCOC(=O)C(C)O (centres unmarked) [Isoamyl lactate] | 0.2033 |

| Molecule | Q7/Q111 |
| --- | --- |
| CC/C=C\C/C=C\C=C\C(O)CCCCCCCC(=O)O (centres unmarked) [9-HOTE] | 0.1468 |
| CCOC(=O)C(O)CC(C)C (centres unmarked) [Ethyl 2-hydroxy-4-methylpentanoate] | 0.2033 |
| C[C@]12CC[C@@H](O)C[C@@H]1CC[C@@H]1[C@@H]2CC[C@]2(C)[C@@H](O)CC[C@@H]12 [5alpha-androstane-3alpha,17beta-diol] | 8.118 |
| C=CC(CCCCC)OC(=O)CCC (centres unmarked) [1-Ethenylhexyl butanoate] | 0.2707 |
| CCCCC/C=C\C=C\O/C=C/CCCCCCC(=O)O [(2′E,4′Z,8E)-Colneleic acid] | 0.1468 |
| COc1cc(O)c2c(=O)cc(-c3ccc(O)c(O)c3)oc2c1 [Luteolin 7-methyl ether] | 6.631 |
| CCCCCc1oc(CCCCCCC(=O)O)c(C)c1C | 0.1468 |
| CC=CC(C)C(=O)OCCCCCC (centres unmarked) [Hexyl 2-methyl-3-pentenoate] | 0.2707 |
| CCCCCCC=CCCCC(=O)O [5-Dodecenoic acid] | 0.2707 |
| CCCCC/C=C\CC/C=C/C(=O)OCC [Ethyl (2E,6Z)-dodecadienoate] | 0.1814 |
| CCCCCCCC/C=C\CCCCCCCCCC(=O)O [11-cis-eicosenoate] | 2.548 |
| CC(=O)/C=C/C1C(C)(O)C(O)CC2C(C)(C)CCCC21C (centres unmarked) [Sterebin D] | 0.1468 |
| Oc1ccc2c(c1)OC[C@@]1(O)c3cc4c(cc3O[C@@H]21)OCO4 [6alpha-Hydroxymaackiain] | 6.631 |
| CC/C=C\C/C=C\CC1OC1CCCCCCCC(=O)O (centres unmarked) [9(10)-EpODE] | 0.1468 |
| CCC1OC1CC=CCC=CCCCCCCCC(=O)O (centres unmarked) [15,16-Epoxy-9,12-octadecadienoic acid] | 0.1468 |
| CCCC=CCOC(=O)CCCCC [2-Hexenyl hexanoate] | 0.2707 |
| CCCCCCCC/C=C\CCCCCCCCCCCCCC(=O)N[C@@H](CO)[C@H](O)CCCCCCCCCCCCCCC [Cer(d18:0/24:1(15Z))] | 9.407 |
| CC1(C)CCC[C@]2(C)[C@H]3CC(=O)O[C@]3(C)CC[C@@H]12 [Norambreinolide] | 0.2629 |
